This passage reports binding results from paper PMC7231995.

Where a chain is given by its changes, count along the chain named. These are yes or no findings as the source states them, for the method shown. Binding seen in cells or lysates may run through a third protein. Here binding means that the protein was enriched with, or labelled near, the bait; the list need not be complete. Tags and fused reporters may be left off the sequences shown.

Assay [1] addresses T1, YqgP-sfGFP (functional fusion of Bacillus subtilis rhomboid protease YqgP with sfGFP) (Bacillus subtilis) (UniProt P54493).
T1 sequence: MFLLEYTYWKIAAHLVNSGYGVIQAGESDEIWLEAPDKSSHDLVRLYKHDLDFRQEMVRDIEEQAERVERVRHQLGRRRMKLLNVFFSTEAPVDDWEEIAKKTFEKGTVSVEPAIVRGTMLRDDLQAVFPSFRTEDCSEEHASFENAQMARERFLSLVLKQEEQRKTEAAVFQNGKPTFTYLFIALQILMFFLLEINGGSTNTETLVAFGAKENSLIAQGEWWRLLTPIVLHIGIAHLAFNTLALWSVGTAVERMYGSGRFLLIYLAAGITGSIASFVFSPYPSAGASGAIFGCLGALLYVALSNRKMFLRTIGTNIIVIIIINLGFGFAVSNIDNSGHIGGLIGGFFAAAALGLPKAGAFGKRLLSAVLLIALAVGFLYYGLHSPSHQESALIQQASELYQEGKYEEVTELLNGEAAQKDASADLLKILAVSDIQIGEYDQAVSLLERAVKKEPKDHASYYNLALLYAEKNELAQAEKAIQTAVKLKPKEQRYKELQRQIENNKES
As to the kind of experiment: affinity purification with mass spectrometry; YqgP-sfGFP baits captured on anti-GFP antibody resin (Chromotek) from B. subtilis membranes solubilised with 1% NP-40, 3 h at 4°C; label-free NanoLC-MS/MS; control: wild-type strain BTM2 without bait.

The target in assay [2] is T2, YqgP.S288A-sfGFP (catalytically dead YqgP fused with sfGFP) (Bacillus subtilis) (UniProt P54493).
T2 sequence: T1 sequence with S288A
The assay is described as above.

On to “ATPase subunit A (from UniProt P37808 1-502)”, for which the binding result in assay [1] and in assay [2] was “binds” throughout.

Consider “ATPase subunit D (from UniProt P37809 1-473)”, for which the binding result in assay [1] and in assay [2] was “binds” each time.

For “ATPase subunit G (from UniProt P37810 1-287)”, the binding entry in assay [1] and in assay [2] was “binds” each time.

For the substance “FtsH, membrane-anchored ATP-dependent processive zinc metalloprotease (from UniProt P37476 1-637) (enzyme)”, the binding result in assay [1] and in assay [2] was “binds” in each case.
